In this experiment the target is T1, CP190 protein (Drosophila melanogaster) (UniProt Q24478).
T1 sequence: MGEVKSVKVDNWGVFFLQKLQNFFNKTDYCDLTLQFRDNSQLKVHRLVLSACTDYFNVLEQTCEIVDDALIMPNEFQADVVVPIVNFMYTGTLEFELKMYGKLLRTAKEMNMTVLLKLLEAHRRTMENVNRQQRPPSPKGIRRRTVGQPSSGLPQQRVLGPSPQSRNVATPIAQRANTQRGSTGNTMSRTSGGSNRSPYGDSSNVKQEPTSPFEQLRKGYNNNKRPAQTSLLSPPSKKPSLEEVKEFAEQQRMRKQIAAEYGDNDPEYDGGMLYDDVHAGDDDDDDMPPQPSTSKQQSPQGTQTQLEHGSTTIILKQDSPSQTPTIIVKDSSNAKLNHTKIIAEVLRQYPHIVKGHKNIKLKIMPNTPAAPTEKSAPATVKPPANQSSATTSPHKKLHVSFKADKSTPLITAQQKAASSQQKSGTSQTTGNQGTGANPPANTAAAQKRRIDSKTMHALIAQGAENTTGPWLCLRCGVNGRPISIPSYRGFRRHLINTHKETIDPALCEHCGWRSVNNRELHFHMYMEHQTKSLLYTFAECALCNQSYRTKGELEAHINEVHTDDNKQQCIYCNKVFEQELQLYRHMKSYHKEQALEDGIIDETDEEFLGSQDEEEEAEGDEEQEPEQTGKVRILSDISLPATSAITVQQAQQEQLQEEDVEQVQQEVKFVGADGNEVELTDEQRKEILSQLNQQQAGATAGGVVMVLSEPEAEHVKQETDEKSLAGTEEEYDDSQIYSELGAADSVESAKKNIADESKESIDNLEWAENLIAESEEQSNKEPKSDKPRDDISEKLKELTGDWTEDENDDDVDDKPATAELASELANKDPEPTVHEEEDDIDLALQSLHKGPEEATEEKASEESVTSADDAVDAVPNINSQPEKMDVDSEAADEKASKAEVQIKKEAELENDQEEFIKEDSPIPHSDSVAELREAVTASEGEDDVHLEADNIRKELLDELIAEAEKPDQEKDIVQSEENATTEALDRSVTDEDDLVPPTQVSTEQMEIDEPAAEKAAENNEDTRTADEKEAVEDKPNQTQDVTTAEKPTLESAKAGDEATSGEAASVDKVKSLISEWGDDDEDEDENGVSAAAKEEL
The experiment can be described thus: co-IP.

No constants are given. Whether binding was seen depends on the method and setting. Binding seen in cells or lysates may run through a third protein. Some entries that bind do so weakly or less than the wild type. Where a sequence is shown, tags or fusion partners need not be part of it.

B1: 3×HA-tagged dCTCF^Δ705–733 (protein, UniProt Q9VS55)
chain: MPRRTKKDEDPEDLQTFLNNFHKEIEGNSDEKVVNTILEAISAEAIDLDENGAEAGGSKPMEEAEADLDHAEEAEEEEEDDEDKYFIDDEGNCYIKTTPKKQKELQKKLKQAAAKPGKATRSVVSTATNKSINLRPAKSTPKATTSKPPPEPKAISVRPARAAAAKAKQSAMPPPPALVVKVPAPRGRPRKNPVIPKPEPMDLERELEELVDEPDISSMVTELSDYTVDEAAVEAATATLTPNEAEVYEFEDNATTEDENADKKDVDFVLSNKEVKLKTASSTSQNSNASGHKYSCPHCPYTASKKFLITRHSRSHDVEPSFKCSICERSFRSNVGLQNHINTHMGNKPHKCKLCESAFTTSGELVRHTRYKHTKEKPHKCTECTYASVELTKLRRHMTCHTGERPYQCPHCTYASQDMFKLKRHMVIHTGEKKYQCDICKSRFTQSNSLKAHKLIHSVVDKPVFQCNYCPTTCGRKADLRVHIKHMHTSDVPMTCRRCGQQLPDRYQYKLHVKSHEGEKCYSCKLCSYASVTQRHLASHMLIHLDEKPFHCDQCPQAFRQRQLLRRHMNLVHNEEYQPPEPREKLHKCPSCPREFTHKGNLMRHMETHDDSANAREKRRRLKLGRNVRLQKDGTVITLIKDQYVDMDRDQEENEEDDNPESYDLAEIEPENSEAEDADDDVETIVSDPIRQRIKPAPIIINKQEEPDNSDFTVEWQGDDGEVMVVELVNGDEEVLVKHEPSANSKISAKNCFGFEDDDDYEEYGDGENEVDGASQEFLQLMDMIEQDS
Turning to B1, the binding result was “no binding”.

B2: 3×HA-tagged dCTCF wild type (protein, UniProt Q9VS55 1-818)
chain: MPRRTKKDEDPEDLQTFLNNFHKEIEGNSDEKVVNTILEAISAEAIDLDENGAEAGGSKPMEEAEADLDHAEEAEEEEEDDEDKYFIDDEGNCYIKTTPKKQKELQKKLKQAAAKPGKATRSVVSTATNKSINLRPAKSTPKATTSKPPPEPKAISVRPARAAAAKAKQSAMPPPPALVVKVPAPRGRPRKNPVIPKPEPMDLERELEELVDEPDISSMVTELSDYTVDEAAVEAATATLTPNEAEVYEFEDNATTEDENADKKDVDFVLSNKEVKLKTASSTSQNSNASGHKYSCPHCPYTASKKFLITRHSRSHDVEPSFKCSICERSFRSNVGLQNHINTHMGNKPHKCKLCESAFTTSGELVRHTRYKHTKEKPHKCTECTYASVELTKLRRHMTCHTGERPYQCPHCTYASQDMFKLKRHMVIHTGEKKYQCDICKSRFTQSNSLKAHKLIHSVVDKPVFQCNYCPTTCGRKADLRVHIKHMHTSDVPMTCRRCGQQLPDRYQYKLHVKSHEGEKCYSCKLCSYASVTQRHLASHMLIHLDEKPFHCDQCPQAFRQRQLLRRHMNLVHNEEYQPPEPREKLHKCPSCPREFTHKGNLMRHMETHDDSANAREKRRRLKLGRNVRLQKDGTVITLIKDQYVDMDRDQEENEEDDNPESYDLAEIEPENSEAEDADDDVETIVSDPIRQRIKPAPIIINKQARLAASEKQPMIINQRLRSQRGTKTFHIKEEPDNSDFTVEWQGDDGEVMVVELVNGDEEVLVKHEPSANSKISAKNCFGFEDDDDYEEYGDGENEVDGASQEFLQLMDMIEQDS
Take B2: the binding entry was “binds”.

(Values after publication doi:10.1101/2021.05.31.446447.)
